This note sets out measurements from US11981719 (ALTEOGEN, dated 2024).

This test addresses T1, recombinant hGH receptor Fc chimera (human, UniProt P10912 19-264).
T1 construct: also called hGH receptor chimera; not shown: Fc part of the chimera
T1 sequence (looked up): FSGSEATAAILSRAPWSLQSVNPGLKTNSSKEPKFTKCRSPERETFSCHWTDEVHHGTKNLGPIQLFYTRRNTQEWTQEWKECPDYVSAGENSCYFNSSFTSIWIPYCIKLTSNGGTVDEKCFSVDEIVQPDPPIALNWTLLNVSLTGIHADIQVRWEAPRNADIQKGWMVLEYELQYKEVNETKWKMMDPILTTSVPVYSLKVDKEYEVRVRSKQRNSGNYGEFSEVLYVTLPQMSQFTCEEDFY
The experiment in a line: ELISA on plate-coated recombinant hGH receptor Fc chimera. Background: An ELISA detects its analyte on a solid surface through an enzyme-linked reagent.

Changes are numbered by the printed parent chain. These are yes or no findings as the source states them, for the method shown. Some entries that bind do so weakly or less than the wild type.

B1: hGH-A4 (ligand)
chain: FPTIPLSRLFDNAMLRADRLNQLAFDTYQEFEEAYIPKEQKYSFLQNPQTSLCFSESIPTPSNREETQQKSNLELLRISLLLIQSWLEPVQFLRSVFANSLVYGASDSNVYDLLKDLEEKIQTLMGRLEDGSPRTGQIFKQTYSKFDTNSHNDDALLKNYGLLYCFRKDMDKVSTFLRTVQCRSVEGSCGFEDPQGDAANKTDTSHHDQDHPTFNKITPNLAEFAFSLYRQLAHQSNSTNIFFSPVSIATAFAMLSLGTKADTHDEILEGLNFNLTEIPEAQIHEGFQELLHTLNQPDSQLQLTTGNGLFLSEGLKLVDKFLEDVKKLYHSEAFTVNFGDTEEAKKQINDYVEKGTQGKIVDLVKELDRDTVFALVNYIFFKGKWERPFEVKDTEEEDFHVDQVTTVKVPMMKRLGMFNIQHCKKLSSWVLLMKYLGNATAIFFLPDEGKLQHLENELTHDIITKFLENEDRRSASLHLPKLSITGTYDLKSVLGQLGITKVFSNGADLSGVTEEAPLKLSKAVHKAVLTIDEKGTEAAGAMFLEAINMSIPPEVKFNKPFVFLMIDQNTKSPLFMGKVVNPTQK
notes: also called hGHRA-NexP
For the molecule B1, the binding entry is “binds”.

B2: hGH-A9 (ligand)
chain: B1 chain with Q46K
notes: also called hGHRA-NexP
Turning to B2, the binding entry was “binds”.

B3: hGH-A6 (ligand)
chain: B1 chain with D18H, F54P, R64K, F176Y, T179I
notes: also called hGHRA-NexP
Regarding B3, the binding entry is recorded as “binds”.

B4: hGH-A7 (ligand)
chain: B1 chain with D18H, F54P, R64K, R167N, D171S, F176Y, T179I
notes: also called hGHRA-NexP
For the molecule B4, the binding entry is on record as “binds”.

B5: hGH-A8 (ligand)
chain: B1 chain with R167N, K168A, D171S, K172R
notes: also called hGHRA-NexP
For the molecule B5, the binding entry was “binds”.

B6: hGH-A10 (ligand)
chain: EDPQGDAANKTDTSHHDQDHPTFNKITPNLAEFAFSLYRQLAHQSNSTNIFFSPVSIATAFAMLSLGTKADTHDEILEGLNFNLTEIPEAQIHEGFQELLHTLNQPDSQLQLTTGNGLFLSEGLKLVDKFLEDVKKLYHSEAFTVNFGDTEEAKKQINDYVEKGTQGKIVDLVKELDRDTVFALVNYIFFKGKWERPFEVKDTEEEDFHVDQVTTVKVPMMKRLGMFNIQHCKKLSSWVLLMKYLGNATAIFFLPDEGKLQHLENELTHDIITKFLENEDRRSASLHLPKLSITGTYDLKSVLGQLGITKVFSNGADLSGVTEEAPLKLSKAVHKAVLTIDEKGTEAAGAMFLEAINMSIPPEVKFNKPFVFLMIDQNTKSPLFMGKVVNPTQKFPTIPLSRLFDNAMLRAHRLNQLAFDTYQEFEEAYIPKEQKYSFLQNPQTSLCPSESIPTPSNKEETQQKSNLELLRISLLLIQSWLEPVQFLRSVFANSLVYGASDSNVYDLLKDLEEKIQTLMGRLEDGSPRTGQIFKQTYSKFDTNSHNDDALLKNYGLLYCFNKDMSKVSTYLRIVQCRSVEGSCGF
notes: also called hGHRA-NexP
In the case of B6, the binding entry is on record as “binds”.

B7: hGH-A11 (ligand)
chain: B6 chain with H412D, Q440K, P448F, K458R, N561R, S565D, Y570F, I573T
notes: also called hGHRA-NexP
Turning to B7, the binding result is “binds”.
